Test results from patent publication US20210395309A1, “PEPTIDE-DRUG CONJUGATES” (Hong Kong Baptist University, priority 2020, published 2021).
At least one compound was matched to its structure with a doubt left. Where a SMILES comes first, the peptide text is derived from it. The star is where a group is joined. Paclitaxel(2'-O-succinyl) = CC(=O)O[C@H]1C(=O)[C@@]2(C)[C@H]([C@H](OC(=O)c3ccccc3)[C@]3(O)C[C@H](OC(=O)[C@H](OC(=O)CCC(=O)*)[C@@H](NC(=O)c4ccccc4)c4ccccc4)C(C)=C1C3(C)C)[C@]1(OC(C)=O)CO[C@@H]1C[C@@H]2O

How the values were obtained:
[1] = tested on: HEK293T (ACE-negative) cells; test: MTT cytotoxicity assay in ACE-negative HEK293T; format: cell-based, human
Description: (§1) MTT assays were performed to study the in vitro antitumor effects of BPP-PTX conjugate as well as free PTX and BPP in various ACE-negative and ACE-positive cell lines. Briefly, the cells (5,000 per well) were seeded in 96-well plates 24 h before treatment. The different drug formulations at concentrations of 0.01-1000 nM PTX or 0.01-1000 nM BPP-PTX and free BPP were added. The cells were cultured for another 48 h. 20 μL of 3-(4,5-dimethylthiazol-2-yl)-2,5-diphenyltetrazolium bromide (MTT) solution (5 mg/mL) was added. The cells were further cultured for 4 h, the medium was removed, and 150 μL DMSO was added to dissolve the MTT-formazan crystals. The optical density (O.D.) values for the untreated group were set as 100% viability. Independent experiments were performed in triplicate.
(§2) Each experiment was performed at least three times. GraphPad Prism 6.0 software was used for IC50 calculations and statistical analyses, including student t-test and two-way ANOVA.

[2] = tested on: MDA-MB-231 (ACE-positive) cells; test: MTT cytotoxicity assay in ACE-positive TNBC MDA-MB-231; format: cell-based, human
Description: as §1, §2

[3] = tested on: MDA-MB-468 (ACE-positive) cells; test: MTT cytotoxicity assay in ACE-positive TNBC MDA-MB-468; format: cell-based, human
Description: as §1, §2

[4] = tested on: HEK293T-ACE cells; test: Cytotoxicity in ACE-overexpressed HEK293T-ACE versus control HEK293T; format: cell-based, human; conditions: 1-, 10-, and 100 nM; ACE plasmid vs empty plasmid
Description: (§3) ACE siRNA (h2) (sc-270350) and Control siRNA-A (sc-37007) were purchased from Santa Cruz Biotechnology, Inc. The ACE expression plasmid was bought from Gen Script (Nanjing) Co., Ltd. Transfections were carried out using Lipofectamine 2000 (Invitrogen) according to the manufacturer's instructions.
as §1
(§4) Next, it was determined whether the cytotoxicity of BPP-PTX was mediated by ACE or not. First, the ACE protein was artificially overexpressed in HEK293T cell lines by transfecting ACE-containing plasmid, and the empty plasmid was transfected as a control. […]

[5] = tested on: MDA-MB-231-siACE cells; test: Cytotoxicity in ACE-knockdown MDA-MB-231-siACE versus MDA-MB-231-siCtr; format: cell-based, human; conditions: 10- and 100 nM
Description: as §3, §1, §4

[6] = tested on: MDA-MB-468-siACE cells; test: Cytotoxicity in ACE-knockdown MDA-MB-468-siACE versus MDA-MB-468-siCtr; format: cell-based, human; conditions: 10- and 100 nM
Description: as §3, §1, §4

[7] = tested on: MDA-MB-231 cells; test: Annexin V-FITC/PI apoptosis assay, flow cytometry; format: cell-based, human; conditions: 10 nM, 48 h
Description: (§5) 1×10^5 MDA-MB-231 or 1.5×10^5 MDA-MB-468 cells per well were cultured in 6-well plates. After attachment, cells were treated with DMSO or 10 nM PTX or BPP-PTX for 48 h and stained with Annexin V (AV) conjugated with FITC and propidium iodide (PI) using the Annexin V-FITC Apoptosis Assay Kit following the manufacturer's instructions. Stained cells were analyzed with the Cyflow Cube flow cytometer (PARTEC, Germany). Data were analyzed using FlowJo 7.6.5 software.

[8] = tested on: MDA-MB-468 cells; test: Annexin V-FITC/PI apoptosis assay, flow cytometry; format: cell-based, human; conditions: 10 nM, 48 h
Description: as §5

[9] = tested on: MDA-MB-468 cells; test: TNBC orthotopic mouse model, tumor growth; format: in vivo; conditions: for average tumor weight: end of 28-day treatment
Description: To test the in vivo efficacy and toxicity of BPP-PTX, an orthotopic mouse model was established. ACE-positive MDA-MB-468 cells were injected orthotopically in the mammary fat pads of the female athymic nude mouse. Once mice attained palpable tumors, they were randomly divided into four groups and treated for 28 days with PBS, free PTX (2.4 μmol/kg), low dose BPP-PTX (2.4 μmol/kg), and high-dose BPP-PTX (9.6 μmol/kg), every 4 days by intraperitoneal injection (i.p.). Tumor growth was monitored by measuring tumor volume every 4 days with a caliper rule. On day 4, after the first injection, the effect of the drugs was not yet detectable since average tumor volumes, as measured with the caliper, were similar in the four groups of mice. […] On day 28, the average tumor volume of mice treated with low-dose BPP-PTX had decreased by about 15% compared to animals treated with free PTX, and by 54% compared to control animals (PBS). Meanwhile, the average tumor volume of mice treated with high-dose BPP-PTX, had decreased by about 30% compared to animals treated with free PTX, and by 62% compared to control animals (FIGS. 5A and 5B). Consistently, the average tumor weight of mice treated with low-dose BPP-PTX was 0.20 g (0.17, 0.24) lower than that of mice treated with free PTX (0.26 g (0.21, 0.31)) and control mice (0.43 g (0.37, 0.49)).

[10] = Hydrophilicity; format: physicochemical
[11] = day 28, high dose 9.6 μmol/kg i.p. every 4 days
[12] = day 28, low dose 2.4 μmol/kg i.p. every 4 days

CC[C@H](C)[C@H](NC(=O)[C@H](CCC(N)=O)NC(=O)[C@@H]1CCCN1C(=O)[C@H](CCCNC(=N)N)NC(=O)[C@@H]1CCCN1C(=O)[C@H](Cc1c[nH]c2ccccc12)NC(=O)[C@H](CCC(=O)O)NC(=O)CCC(=O)O[C@@H](C(=O)O[C@H]1C[C@@]2(O)[C@@H](OC(=O)c3ccccc3)[C@@H]3[C@]4(OC(C)=O)CO[C@@H]4C[C@H](O)[C@@]3(C)C(=O)[C@H](OC(C)=O)C(=C1C)C2(C)C)[C@@H](NC(=O)c1ccccc1)c1ccccc1)C(=O)N1CCC[C@H]1C(=O)N1CCC[C@H]1C(N)=O [BPP-PTX] ({Paclitaxel(2'-O-succinyl)}-EWPRPQIPP-NH2)
Fold of Potency Reduction (BPP-PTX:PTX) [1]: 91.9
Fold of Potency Reduction (BPP-PTX:PTX) [2]: 3.1
Fold of Potency Reduction (BPP-PTX:PTX) [3]: 4.1
cell variability in HEK293T-ACE compared with HEK293T [4]: significantly lower
cell variability in siACE cells compared with siCtr cells [5]: significantly higher
cell variability in siACE cells compared with siCtr cells [6]: significantly higher
apoptosis [7]: induced apoptosis
apoptosis [8]: induced apoptosis
average tumor volume decrease compared to animals treated with free PTX [9, 11]: about 30%
average tumor volume decrease compared to control animals [9, 11]: 62%
average tumor volume decrease compared to animals treated with free PTX [9, 12]: about 15%
average tumor volume decrease compared to control animals (PBS) [9, 12]: 54%
average tumor weight ([9]; 2.4 μmol/kg i.p. every 4 days): 0.20 g
average tumor weight ([9]; 9.6 μmol/kg i.p. every 4 days): 0.16 g
tumor growth compared with control mice ([9]; i.p. every 4 days, 28 days, PTX 2.4 μmol/kg, BPP-PTX 2.4 and 9.6 μmol/kg): significantly lower
tumor suppression effect with respect to the free PTX ([9]; low dose and high dose, i.p.): stronger tumor suppression effect
hydrophilicity [10]: very hydrophilic
